# Experimental data as given in PubChem BioAssay AID493014 (National Center for Advancing Translational Sciences (NCATS), 2011).
# Out of some 340,000 compounds screened, about 170 (0.05%) were called active. Inconclusive results, whose numbers are uncertain, are shown with a selection of clear calls. The call rests on the fitted dose curve; in most records, active means well fitted inhibition curve with a large enough effect in the signal ratio, with a control signal flat (not every such curve was filed as active); inconclusive means small, poorly fitted or top-dose-only effect, or effect the other way, or a change in a side signal; inactive means flat fitted curve, though single readings scatter; the % refers to the signal ratio. Potencies of inconclusive entries are doubtful fits and often do not repeat.
# Assay: qHTS Assay to Find Inhibitors of Chronic Active B-Cell Receptor Signaling;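 on activity change, negative = inhibition: plate controls were basal doxycycline-induced cells for no effect and cells given 10 µM MG132 for full effect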
# Details: ABC-DLBCL IkBa-CBG/CBR reporter, luminescence ratio (green luciferase fused to IkBa over red control in TMD8 lymphoma cells), 4 h; activity change, negative = inhibition: at 46.1 µM (top of the series)
# How it was run: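 TMD8 ABC-DLBCL cells carrying doxycycline-inducible green luciferase fused to IkappaBalpha plus unfused red luciferase were exposed to compounds (up to 46 uM) for 4 hrs at 37C. Activity came from the overlap-corrected green/red luminescence ratio.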
# Potency means the concentration at half of the fitted maximal effect.
SMILES,"activity change, negative = inhibition",Potency
CC(NC(=O)CCC(=O)c1ccc(F)cc1)C1CC2CCC1C2 (stereo not drawn),inactive,
COc1ccc(C(=O)N2CCC(n3c(C)nc4cc(F)ccc43)CC2)cc1,inconclusive: 295%,
CCOC(=O)/C(C)=N/Nc1nc(-c2ccc(NC(C)=O)cc2)cs1,,"inconclusive: 3.98 µM [falling, partial curve, poor fit]"
COc1ccccc1/C=C1\SC(=O)N(CCC(=O)N(C)C2CCS(=O)(=O)C2)C1=O (stereo not drawn),,"inconclusive: 22.4 µM [falling, partial curve]"
COC(=O)[C@H](CC(C)C)NC(=O)Nc1ccc(S(N)(=O)=O)cc1,inconclusive: 15.7%,
Cn1c(N)c(C(=O)CSc2n[nH]c(-c3ccccc3)n2)c(=O)n(C)c1=O,inconclusive: 0.896%,
O=C(O)CC1Sc2nc3ccccc3n2C1=O (stereo not drawn),,"inconclusive: 11.6 µM [rising, single point]"
COc1ccc(C(C)=O)cc1CSc1nc2cc(C(=O)O)ccc2c(=O)n1Cc1ccccc1,inconclusive: 6.85%,
CCN1C(=O)C(CC(=O)Nc2ccc(OC)cc2)N(CCc2ccc(OC)cc2)C1=S (stereo not drawn),inconclusive: 5.69%,
CCN(CC)C(=O)CSc1nc(-c2ccc(C)cc2)nc2c1COC(C)(C)C2,inconclusive: 9.19%,
CCCC(=O)n1nc(-c2cccnc2)nc1NCc1ccc(OC)cc1,,"inconclusive: 12.6 µM [falling, single point]"
CC1CCCCN1CCCNC(=O)c1ccc2nc(N3CCCCC3)sc2c1 (stereo not drawn),inconclusive: -8.83%,
COc1ccc(NS(=O)(=O)c2cccc(NC(=O)CNC(C)=O)c2)cc1,inconclusive: 4.3%,
CC(C)(CO)C(O)C(=O)NCCC#N (stereo not drawn),inactive,
CCn1ccnc1CN(C)Cc1nc(-c2ccccc2)no1,,"inconclusive: 10 µM [rising, partial curve, poor fit]"
COc1ccc(C)cc1S(=O)(=O)N(CC(=O)N1CCCC1)c1ccccc1,inconclusive: 9.75%,
Cc1nnsc1C(=O)N1CCN(c2ccc(C#N)cn2)CC1,inconclusive: 0.547%,
COC(=O)c1nn(-c2ccccc2)c(Sc2ccccc2)c1/C=N/O,inconclusive: 4.86%,
N/C(=N\O)c1ccccc1N1CCCCC1,inactive,
Brc1ccc(-c2nc3ccccc3s2)s1,inconclusive: 5.22%,
CSc1cc(-c2ccc(Cl)cc2)c(C(=O)NN)s1,,"inconclusive: 8.91 µM [rising, partial curve, poor fit]"
Cc1[nH]c2ccccc2c1/C=N/Nc1nc2ccccc2[nH]1,,"inconclusive: 28.2 µM [cytotoxic, single point]"
O=C1CC(c2ccccc2)CC2=C1C=Nc1ccccc1N2 (stereo not drawn),inactive,
COc1ccccc1N1C(=O)CC1(C#N)c1ccc(OCc2ccccc2)cc1 (stereo not drawn),inconclusive: -4.14%,
Oc1ccc(-c2nnc(Nc3cccc(O)c3)c3ccccc23)cc1,,"inconclusive: 12.6 µM [cytotoxic, partial curve]"
NC(=O)CC(NC(=O)Cc1ccc(Br)cc1)c1ccc(NCCc2ccccc2F)c([N+](=O)[O-])c1 (stereo not drawn),inactive,

SMILES,"activity change, negative = inhibition",Potency
CCOc1ccc(N(CC(=O)Nc2ccccc2OC)S(C)(=O)=O)cc1,,"inconclusive: 17.8 µM [falling, single point]"
O=C(COC(=O)CSc1ccc2ccccc2c1)Nc1ccccc1OC(F)F,inconclusive: 29.5%,
CCOC(=O)c1sc(N)c(C(=O)OCC)c1COC(=O)C1CC(=O)N(Cc2ccco2)C1 (stereo not drawn),inconclusive: 1.81%,
CCN(CC)S(=O)(=O)c1cccc(NC(=O)CNC2CCCCCC2)c1,inactive,
CCCNC(=O)c1cc(S(=O)(=O)N2CCCCC2)c[nH]1,,"inconclusive: 3.98 µM [falling, partial curve, poor fit]"
COCc1cc(OC)nc(-c2csc(C)n2)n1,inconclusive: 0.159%,
CN1CCN(c2ccc(-c3cccc(NC(=O)COc4ccccc4)c3)nn2)CC1,inconclusive: -6.69%,
CC(=O)c1ccc(OC(=O)CCN2c3ccccc3Sc3ccccc32)cc1,inconclusive: -8.65%,
COCCSc1ccccc1C(=O)Nc1ccc(Cl)cn1,inconclusive: -1.05%,
Cc1ccc(NC(=O)Nc2ccc3c(c2)N(C)C(=O)CS3)cc1C,,"inconclusive: 29.1 µM [falling, single point]"
Cc1ccc(N(Cc2ccccc2)C(=O)c2cccc(S(=O)(=O)N3CC(C)OC(C)C3)c2)cc1 (stereo not drawn),inconclusive: -2.59%,
c1ccc(-c2nc3ccccc3c3nc4ccccc4n23)cc1,inactive,
N#Cc1ccsc1NC(=O)CN1CCN(c2ccccn2)CC1,inconclusive: 19.8%,
Cc1cc(NC(=O)c2c(C)noc2C)no1,inactive,
NCC(O)COCCC12CC3CC(CC(C3)C1)C2 (stereo not drawn),inactive,
COc1cc(C(=S)N2CCC(C)CC2)ccc1O,inconclusive: 20.9%,
COc1ccccc1-c1nc(-c2ccccn2)no1,,"inconclusive: 29.1 µM [rising, single point]"
Cc1nn(C)c(C)c1N1C(=O)c2cccc3c(Br)ccc(c23)C1=O,inconclusive: -3.7%,
O=S(=O)(NCc1cn2ccccc2n1)c1cccs1,inconclusive: 5.09%,
O=C(NCCC1=CCCCC1)c1ccc(Cl)cc1,,"inconclusive: 35.5 µM [rising, partial curve]"
COc1ccc(NC(=O)CCNS(=O)(=O)c2cccc(C(C)=O)c2)cc1S(N)(=O)=O,inconclusive: 6.25%,
CC1Cc2ccccc2N1C(=O)NC1CC(=O)N(c2ccc3c(c2)OCCO3)C1 (stereo not drawn),,"inconclusive: 10 µM [falling, partial curve, poor fit]"
O=C(N/N=C/c1ccoc1)c1cc(Br)ccc1O,,"inconclusive: 25.1 µM [falling, partial curve]"
Fc1ccc(-n2ncc3c(NCCC4=CCCCC4)ncnc32)cc1,inconclusive: 11.9%,
O=C(CN1C(=O)CCSc2ccccc21)Nc1ccccc1,inactive,
CCOC(=O)c1ccc(NC(=O)COc2cc3oc(=O)c(CC(C)O)c(C)c3cc2Cl)cc1 (stereo not drawn),inconclusive: 6.47%,

# Nothing new here: five of the compounds above.
SMILES,"activity change, negative = inhibition",Potency
COc1ccccc1-c1nc(-c2ccccn2)no1,,"inconclusive: 29.1 µM [rising, single point]"
Cc1nn(C)c(C)c1N1C(=O)c2cccc3c(Br)ccc(c23)C1=O,inconclusive: -3.7%,
O=S(=O)(NCc1cn2ccccc2n1)c1cccs1,inconclusive: 5.09%,
O=C(NCCC1=CCCCC1)c1ccc(Cl)cc1,,"inconclusive: 35.5 µM [rising, partial curve]"
COc1ccc(NC(=O)CCNS(=O)(=O)c2cccc(C(C)=O)c2)cc1S(N)(=O)=O,inconclusive: 6.25%,

# The listing continues:

SMILES,"activity change, negative = inhibition",Potency
COc1cccc(NS(=O)(=O)c2ccc3[nH]cc(C(=O)NCCC(C)C)c(=O)c3c2)c1,inconclusive: -0.557%,
COc1ccc(/C=N/NC(=O)c2ccncc2)cc1CN1CCCc2ccccc21,,"inconclusive: 6.31 µM [falling, partial curve, poor fit]"
C#CCOCCOCCOCCNc1nc(N2CCN(C(=O)CCCCCCCCCCNC(=O)Cn3cc(C[C@@H](C)O)nn3)CC2)nc(N2CCN(C(=O)CCCCCCCCCCNC(=O)[C@H](CCCCN)n3cc(C[C@@H](C)CC)nn3)CC2)n1,inactive,
CCCCC(=O)N1CCCC(c2nc3c(nnn3Cc3cc(C)ccc3C)c(=O)[nH]2)C1 (stereo not drawn),inconclusive: -1.39%,
COc1ccccc1C(=O)COC(=O)c1ccc(-n2cnnn2)cc1,,"inconclusive: 14.6 µM [falling, partial curve, poor fit]"
CNC(=O)C(C#N)(Cc1cc(C(C)=O)ccc1OC)Cc1cc(C(C)=O)ccc1OC,inconclusive: -5.9%,
COCCN(C(=O)Cc1ccc(OC)c(OC)c1)c1nc(-c2cc(OC)ccc2OC)cs1,inconclusive: 0.99%,
COc1ccc(/C=N/Nc2cc(C)nc3c(C)cccc23)cc1,inconclusive: -15.7%,
CC(SC#N)C(=O)C12CC3CC(CC(C3)C1)C2 (stereo not drawn),inconclusive: 0.0764%,
O=C(NNC(=O)c1ccc(O)c(Cl)c1)c1cccc(S(=O)(=O)N2CCOCC2)c1,,"inconclusive: 20.6 µM [falling, single point]"
Oc1ccccc1CN1CCC(C(O)(c2ccccc2)c2ccccc2)CC1,inactive,
N#C/C(C(=O)N1CCOCC1)=C1\Nc2ccccc2S1,,"inconclusive: 5.17 µM [falling, partial curve]"
O=C(NC(C(=O)N/N=C/c1cccc2ccccc12)c1n[nH]c(=O)c2ccccc12)c1ccccc1 (stereo not drawn),inactive,
CCS(=O)(=O)N1CCCC(C(=O)NCCc2ccccc2)C1 (stereo not drawn),inactive,
CCN1C(=O)C(CC(=O)Nc2ccc(F)cc2)N(Cc2ccco2)C1=S (stereo not drawn),inconclusive: -15.9%,
COc1ccc(CCNC(=O)COc2cc(=O)n(C)c3ccccc23)cc1OC,,"inconclusive: 8.91 µM [falling, partial curve, poor fit]"
C=CCOc1ccc(C(=O)Nc2ccccc2C(=O)NCc2cccnc2)cc1,,"inconclusive: 7.08 µM [falling, partial curve]"
O=C(CSc1nnc(NC(=O)c2ccc(F)cc2)s1)NCc1ccco1,inconclusive: -17%,
Cn1c(=O)c2c(nc(NCc3ccc4c(c3)OCO4)n2Cc2ccccc2)n(C)c1=O,inactive,
CSCCC1(C(=O)O)NC(c2ccccc2O)C2C(=O)N(C(C)C)C(=O)C21 (stereo not drawn),inconclusive: -4.75%,
COc1ccc(/C=N/NC(=O)c2[nH]c3ccc(C)cc3c2-c2ccccc2)c(C(=O)O)c1OC,,"inconclusive: 3.55 µM [falling, full curve]"
CN(Cc1ccccc1)S(=O)(=O)c1cc2c3c(c1)CCN3C(=O)CC2,inconclusive: 1.74%,
CCOc1c2ccc(C(=O)NCc3ccc(C)cc3)cc2nn1CC,,"inconclusive: 31.6 µM [falling, partial curve, poor fit]"
CC(=O)Nc1ccc(S(=O)(=O)NCCC(=O)NCC2COc3ccccc3O2)cc1 (stereo not drawn),inconclusive: 0.715%,
C/C(=N/NC(=O)CSc1nc2ccccc2n1C)c1ccc(O)cc1,,"inconclusive: 11.2 µM [falling, partial curve, poor fit]"
COc1ccccc1N1CCN(S(=O)(=O)c2ccc(NC(C)=O)cc2)CC1,inconclusive: 2.75%,

# Another view of two compounds above.
SMILES | activity change, negative = inhibition | Potency
CN1CCN(c2ccc(-c3cccc(NC(=O)COc4ccccc4)c3)nn2)CC1 | inconclusive: -6.69% | 
CC(=O)c1ccc(OC(=O)CCN2c3ccccc3Sc3ccccc32)cc1 | inconclusive: -8.65% | 
